Results are given in words; binding and its absence hold for the method and conditions named. Binding seen in cells or lysates may run through a third protein. Here binding means that the protein was enriched with, or labelled near, the bait; the list need not be complete. Tags and fused reporters may be left off the sequences shown.
T1: biotin ligase-fused casp3 (BioCasp3), plasmid construct (UniProt P42574)
T1 sequence: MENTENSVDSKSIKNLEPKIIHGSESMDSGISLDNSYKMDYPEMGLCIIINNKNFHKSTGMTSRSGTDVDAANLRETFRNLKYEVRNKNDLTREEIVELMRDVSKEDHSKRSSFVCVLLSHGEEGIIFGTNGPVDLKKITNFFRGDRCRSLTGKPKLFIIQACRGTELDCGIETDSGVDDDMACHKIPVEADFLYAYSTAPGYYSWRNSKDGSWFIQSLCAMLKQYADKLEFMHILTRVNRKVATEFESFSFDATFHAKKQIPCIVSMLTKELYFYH

T2: biotin ligase-fused AQP1 (AdBioAQP1), adenoviral construct (human) (UniProt P29972)
T2 sequence: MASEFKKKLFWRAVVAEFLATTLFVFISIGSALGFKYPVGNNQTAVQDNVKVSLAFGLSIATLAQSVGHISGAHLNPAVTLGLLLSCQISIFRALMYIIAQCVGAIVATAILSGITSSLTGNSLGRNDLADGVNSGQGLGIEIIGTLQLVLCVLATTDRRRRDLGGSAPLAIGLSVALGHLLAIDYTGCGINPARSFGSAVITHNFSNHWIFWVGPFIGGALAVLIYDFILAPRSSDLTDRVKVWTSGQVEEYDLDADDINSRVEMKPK


Assays:
[1] = molecular target: T1, biotin ligase-fused casp3 (BioCasp3), plasmid construct; assay: proximity labelling
[2] = molecular target: T2, biotin ligase-fused AQP1 (AdBioAQP1), adenoviral construct (human); assay: proximity labelling

Row | Binder | binding [1] | binding [2]
1 | wild type AQP1 (WTAQP1), plasmid construct (protein, UniProt P29972 1-269) MASEFKKKLFWRAVVAEFLATTLFVFISIGSALGFKYPVGNNQTAVQDNVKVSLAFGLSIATLAQSVGHISGAHLNPAVTLGLLLSCQISIFRALMYIIAQCVGAIVATAILSGITSSLTGNSLGRNDLADGVNSGQGLGIEIIGTLQLVLCVLATTDRRRRDLGGSAPLAIGLSVALGHLLAIDYTGCGINPARSFGSAVITHNFSNHWIFWVGPFIGGALAVLIYDFILAPRSSDLTDRVKVWTSGQVEEYDLDADDINSRVEMKPK | binds | –
2 | pro-casp3, endogenous in rat PASMCs (enzyme, UniProt P55213 1-277) MDNNETSVDSKSINNFETKTIHGSKSMDSGIYLDSSYKMDYPEMGLCIIINNKNFHKSTGMSARNGTDVDAANLRETFMALKYEVRNKNDLTREEIMELMDSVSKEDHSKRSSFVCVILSHGDEGVIFGTNGPVDLKKLTSFFRGDYCRSLTGKPKLFIIQACRGTELDCGIETDSGTDDDMACQKIPVEADFLYAYSTAPGYYSWRNSRDGSWFIQSLCAMLKLYAHKLEFMHILTRVNRKVATEFESFSLDATFHAKKQIPCIVSMLTKELYFYH | – | binds

Reference: doi:10.1101/2023.10.05.561144
